Results of single-concentration screens

Chains of the proteins cited; added tags and fusions are not shown. Residues count along the entry.
UniProt P9WNZ1, whole entry: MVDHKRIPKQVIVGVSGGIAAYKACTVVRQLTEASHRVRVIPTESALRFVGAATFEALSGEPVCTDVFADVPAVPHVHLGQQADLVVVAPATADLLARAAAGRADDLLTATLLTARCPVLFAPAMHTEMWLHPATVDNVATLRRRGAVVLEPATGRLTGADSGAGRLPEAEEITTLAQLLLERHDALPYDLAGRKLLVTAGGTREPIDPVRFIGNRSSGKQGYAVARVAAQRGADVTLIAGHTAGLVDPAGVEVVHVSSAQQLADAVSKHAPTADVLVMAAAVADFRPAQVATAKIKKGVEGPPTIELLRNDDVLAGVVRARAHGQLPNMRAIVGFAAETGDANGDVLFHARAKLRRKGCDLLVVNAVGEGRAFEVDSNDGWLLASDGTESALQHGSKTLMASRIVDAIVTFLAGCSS
UniProt Q8IDJ8, 1-583: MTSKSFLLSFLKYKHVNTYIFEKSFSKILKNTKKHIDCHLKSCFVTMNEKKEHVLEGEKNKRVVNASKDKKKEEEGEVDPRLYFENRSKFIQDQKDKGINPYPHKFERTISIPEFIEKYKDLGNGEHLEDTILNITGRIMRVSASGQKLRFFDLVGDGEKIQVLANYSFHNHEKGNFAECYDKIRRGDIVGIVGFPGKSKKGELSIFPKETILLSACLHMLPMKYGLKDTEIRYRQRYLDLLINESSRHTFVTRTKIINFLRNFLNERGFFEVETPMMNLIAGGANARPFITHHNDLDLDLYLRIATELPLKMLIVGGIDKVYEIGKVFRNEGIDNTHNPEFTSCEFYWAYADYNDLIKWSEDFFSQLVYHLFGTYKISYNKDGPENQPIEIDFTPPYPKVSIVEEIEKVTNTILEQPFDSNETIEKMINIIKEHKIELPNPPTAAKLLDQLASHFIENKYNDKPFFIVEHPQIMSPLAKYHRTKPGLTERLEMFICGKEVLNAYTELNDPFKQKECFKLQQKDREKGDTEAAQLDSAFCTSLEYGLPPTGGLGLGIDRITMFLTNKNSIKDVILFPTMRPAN
UniProt P9WFT3, whole entry: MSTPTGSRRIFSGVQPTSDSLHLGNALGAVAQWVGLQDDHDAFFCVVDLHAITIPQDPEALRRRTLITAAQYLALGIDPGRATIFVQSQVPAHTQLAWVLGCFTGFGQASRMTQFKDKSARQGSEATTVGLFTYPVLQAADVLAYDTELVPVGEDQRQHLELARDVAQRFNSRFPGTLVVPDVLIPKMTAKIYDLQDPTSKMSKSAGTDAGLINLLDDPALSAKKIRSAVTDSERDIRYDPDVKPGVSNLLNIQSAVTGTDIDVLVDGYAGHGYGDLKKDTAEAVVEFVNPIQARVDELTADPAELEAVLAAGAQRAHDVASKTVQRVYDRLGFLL
UniProt I6X8D2, whole entry: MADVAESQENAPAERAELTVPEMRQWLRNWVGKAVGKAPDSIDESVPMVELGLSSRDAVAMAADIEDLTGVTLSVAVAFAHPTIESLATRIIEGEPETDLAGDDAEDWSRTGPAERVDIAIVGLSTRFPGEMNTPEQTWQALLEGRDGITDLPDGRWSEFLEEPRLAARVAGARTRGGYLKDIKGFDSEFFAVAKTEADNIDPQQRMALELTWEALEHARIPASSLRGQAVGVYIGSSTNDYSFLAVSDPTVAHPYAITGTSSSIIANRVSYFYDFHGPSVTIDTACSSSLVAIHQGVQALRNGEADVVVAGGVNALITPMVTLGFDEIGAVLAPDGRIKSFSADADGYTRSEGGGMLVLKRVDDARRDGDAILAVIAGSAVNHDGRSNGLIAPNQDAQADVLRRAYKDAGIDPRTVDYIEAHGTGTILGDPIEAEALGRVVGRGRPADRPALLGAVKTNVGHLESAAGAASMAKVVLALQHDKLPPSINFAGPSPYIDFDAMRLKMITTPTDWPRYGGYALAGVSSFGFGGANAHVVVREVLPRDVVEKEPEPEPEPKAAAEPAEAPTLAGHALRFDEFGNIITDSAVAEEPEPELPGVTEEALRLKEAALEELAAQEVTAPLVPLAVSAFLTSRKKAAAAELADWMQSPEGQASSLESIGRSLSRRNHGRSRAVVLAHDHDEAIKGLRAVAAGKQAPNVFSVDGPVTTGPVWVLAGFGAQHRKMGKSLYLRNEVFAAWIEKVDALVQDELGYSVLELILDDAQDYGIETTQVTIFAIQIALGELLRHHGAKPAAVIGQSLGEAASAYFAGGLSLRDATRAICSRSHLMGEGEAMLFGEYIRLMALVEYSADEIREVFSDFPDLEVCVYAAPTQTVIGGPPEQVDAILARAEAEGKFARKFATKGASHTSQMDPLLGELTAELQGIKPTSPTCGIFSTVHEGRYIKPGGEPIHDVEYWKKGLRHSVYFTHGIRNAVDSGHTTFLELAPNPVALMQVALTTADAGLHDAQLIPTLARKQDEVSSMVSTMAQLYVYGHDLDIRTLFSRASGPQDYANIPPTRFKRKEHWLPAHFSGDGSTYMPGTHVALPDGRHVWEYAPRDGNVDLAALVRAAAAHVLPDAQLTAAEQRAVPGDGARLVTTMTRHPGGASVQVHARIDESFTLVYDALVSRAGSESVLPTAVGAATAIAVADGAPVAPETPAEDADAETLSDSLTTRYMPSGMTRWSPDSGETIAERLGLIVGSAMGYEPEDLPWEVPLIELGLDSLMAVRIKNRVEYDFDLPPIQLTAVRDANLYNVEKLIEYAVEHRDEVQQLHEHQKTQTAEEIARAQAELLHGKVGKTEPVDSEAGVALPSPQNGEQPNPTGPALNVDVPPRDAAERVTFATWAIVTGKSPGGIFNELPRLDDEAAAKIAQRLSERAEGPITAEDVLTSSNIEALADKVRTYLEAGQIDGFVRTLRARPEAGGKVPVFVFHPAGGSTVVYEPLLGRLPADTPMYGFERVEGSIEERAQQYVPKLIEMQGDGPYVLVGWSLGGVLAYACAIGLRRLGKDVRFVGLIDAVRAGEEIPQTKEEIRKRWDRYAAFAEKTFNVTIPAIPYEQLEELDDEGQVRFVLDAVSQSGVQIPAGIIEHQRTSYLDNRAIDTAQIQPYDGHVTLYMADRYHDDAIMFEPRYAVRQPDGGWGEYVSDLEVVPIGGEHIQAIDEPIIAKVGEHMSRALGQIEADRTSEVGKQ

From ChEMBL document CHEMBL3988442, “University of Dundee, Small-Polar-MMV Screening Library” (2021).

CoaBC: 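Enzyme assay of CoaBC with a phosphate dye (Biomol Green) read at 650 nm. Target: Coenzyme A biosynthesis protein CoaBC, Mycobacterium tuberculosis (UniProt P9WNZ1). Tested at 30 µM. Direction is inferred from only a few compounds that gave an IC50; most scored high, so higher reads as stronger inhibition. Most strong results did not repeat in a second test. About 67,000 compounds were tested under these conditions; 0.06% (about 40) showed 50% or more at least once.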
PfKRS1: 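Lysine-tRNA ligase, Plasmodium falciparum 3D7 (UniProt Q8IDJ8). Enzyme assay of the cytosolic lysyl-tRNA synthetase in 384-well plates, read by luminescence. Concentration: 30 µM. Direction is inferred from only a few compounds that gave an IC50; most scored high, so higher reads as stronger inhibition. About 69,000 compounds were tested under these conditions; 0.071% (about 49) showed 50% or more at least once.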
Toxoplasma: 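Assay of Toxoplasma gondii numbers, read through their beta-galactosidase reporter with a colour substrate. Concentration: 10 µM. Higher reads as fewer parasites (inferred from which compounds were picked for retests). About 67,000 compounds were tested under these conditions; 0.38% (about 260) showed 50% or more at least once.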
MtTrpRS: 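Tryptophan-tRNA ligase, Mycobacterium tuberculosis (UniProt P9WFT3). Enzyme assay of tryptophanyl-tRNA synthetase; the read-out is not stated. Compounds at 10 µM. Direction is not recorded; retested compounds ran higher, which suggests that high means inhibition. Of about 65,000 compounds tested this way, about 64 (0.098%) reached 50% or more in at least one test.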
Pks13 thioesterase: 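Enzyme assay of the thioesterase domain of polyketide synthase 13; the read-out is not stated. Target: Polyketide synthase Pks13, Mycobacterium tuberculosis (UniProt I6X8D2). Tested at 30 µM. The record gives no direction; the compounds picked for IC50 retests had high values, so higher reads as stronger inhibition. Size under these conditions: about 67,000 compounds, about 300 of them at 50% or above in at least one test.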

Results are given as percent effect.
The record does not define 0% and 100%; most values in the screen are far below 50% and negative numbers occur (in some assays of this library far below -100).
This is an unselected part of the compounds tested.
Two or more numbers in one place are separate tests of the same structure; such repeats can differ widely.
A dash means the value is not listed here; it may have been measured.

Compound,CoaBC,PfKRS1,Toxoplasma,MtTrpRS,Pks13 thioesterase
CN1CC(=O)c2sc(NCCc3ccccc3)nc2C1,-0.8434,-1.672,-4.596,-,-1.202
O=C(NC1CCCC1)[C@H]1CC[C@@H]2[C@@H](CCN2c2ncc(F)cn2)O1,-3.226,-0.2798,-,0.2788,40.35
CCOCC1CC2(CCN(C(=O)C3CC=CC3)CC2)CO1 (stereo unspecified),3.75,4.805,-5.964,-2.75,-10.51
CC(=O)Nc1ccc(CNc2cccc(OCCF)c2)cc1,3.113,0.24,-2.727,-2.469,16.52
CC(C)NC(=O)N1CCC2(CC1)Cc1ccccc1CNC2=O,-0.1212,1.746,-7.849,-,-2.636
Cc1ccoc1C(=O)N1Cc2c(CN3CCCCC3)nn(C)c2C1.O=CO,-,-,12.36,-,-
COCC(=O)N1CCC2(CC1)COCCN2Cc1ccc(F)cc1.O=C(O)C(F)(F)F,-,-,-8.529,-,-
NS(=O)(=O)c1ccc(F)c(C(=O)NCCSC2CCCCC2)c1,-9.328,3.227,-1.971,3.561,-19.85
Fc1cccc(CNCC2Cn3nncc3CO2)c1 (stereo unspecified),5.943,-4.217,0.05977,-6.953,-22.03
CC(=O)Nc1nc(CN(C)C2CCCN(c3cccnn3)C2)cs1 (stereo unspecified),3.609,0.8116,22.26,-8.898,-3.921
O=C(NC1CC1)[C@H]1CN(Cc2ccccc2)C[C@@H]1C(=O)c1ccccc1,-7.506,1.027,17.88,2.546,4.301
COc1cc(CNC(C)Cn2cccn2)cc2c1OCO2.Cl (stereo unspecified),-,-,5.341,-,-
[H][C@]12CC=C(CN3CCCn4nc(CNS(C)(=O)=O)cc4C3)[C@]([H])(C1)C2(C)C,-,-,-24.7,-,-
Cc1ccc(C(=O)Nc2c(C(=O)N(C)C)nn(C)c2C)cc1C,47.58 & 3.175,6.586,61.35,1.425,-7.305
Cc1ccc(CN2C[C@H](N3CCOCC3)[C@@H]3OCCC[C@@H]32)o1,3.271,-0.7871,-,-6.032,-4.024
CCc1nccn1C1CCCN(C(=O)c2ccc(OC)c(OC)c2)C1 (stereo unspecified),3.484,-1.367,-0.2612,17.53,-19.44
C=C(C)COc1cccc(C(=O)N(CC)Cc2nc(COC)no2)c1,-0.9756,1.06,-0.8155,1.956,-13
CCCn1cc(C(=O)NCCc2ccc3c(c2)OCO3)c(C)n1,-,5.963,3.311,-0.8256,-14.98
CC(=O)N1C[C@@H]2CC[C@H](C1)N(Cc1ccc(Cn3cccn3)cc1)C2,-,1.888,-,6.398,-34.42
CC(C)N(C)CCNC(=O)N1CCN(Cc2ccon2)CC1,-2.479,8.166,6.86,2.39,2.248
O=C1CC(N(C(=O)Cc2csc(-c3ccccc3)n2)C2CC2)C(=O)N1 (stereo unspecified),-,3.57,7.659,-3.128,-45.02
O=C1CC[C@]2(CC[C@@H](NCc3ccoc3)CC2)N1,2.799,-0.7113,-,-4.446,-20.23
Cl.N[C@@H](Cc1ccccc1)c1nnc(S(=O)(=O)Cc2ccc(Cl)cc2)o1,-,-,9.837,-,-
Cc1cc(CN[C@@H](Cc2ccccc2)C(N)=O)c(C)s1,4.274,2.584,-3.103,4.497,4.132
CN1CCN2C(=O)N(C3CCCCC3)C[C@H]2C1,-35.17,4.211,-,-4.348,17.28
COc1ccccc1Oc1ncccc1CNC(=O)[C@H](N)CC(C)(C)C,2.564,2.981,-5.021,4.524,-31.01
CN(C)C(=O)N[C@@H]1CN(Cc2ccc3c(c2)OCO3)[C@@H]2CCCO[C@@H]21,0.1269,-0.5695,-,-0.1049,-3.505
CCc1cccc(OCC(=O)N2CCCC(n3cncn3)C2)c1 (stereo unspecified),0.8304,2.456,61.63,-5.712,-11.97
CC(NCc1ccc(OCC(N)=O)cc1)c1ccc(Cl)c(Cl)c1 (stereo unspecified),5.868,2.517,-,-2.033,-15.1
CC(C)=CCN1CCN(Cc2ncc[nH]2)[C@H]2CS(=O)(=O)C[C@H]21,1.895,-2.145,-,-4.617,10.06